In publication PMC12272085:
No constants are given. Whether binding was seen depends on the method and setting. For some assays here: Binding seen in cells or lysates may run through a third protein. Some binding calls cover weakened binding; strength is not graded here. For some assays here: Where a sequence is shown, tags or fusion partners need not be part of it.

Chains of the proteins cited; added tags and fusions are not shown. Lines headed by an entry give the natural chain unless they say otherwise; changes in a name come on top. A line that says so, or that is headed by a name, gives the form on record, which may keep a tag or linker.
UniProt P19338: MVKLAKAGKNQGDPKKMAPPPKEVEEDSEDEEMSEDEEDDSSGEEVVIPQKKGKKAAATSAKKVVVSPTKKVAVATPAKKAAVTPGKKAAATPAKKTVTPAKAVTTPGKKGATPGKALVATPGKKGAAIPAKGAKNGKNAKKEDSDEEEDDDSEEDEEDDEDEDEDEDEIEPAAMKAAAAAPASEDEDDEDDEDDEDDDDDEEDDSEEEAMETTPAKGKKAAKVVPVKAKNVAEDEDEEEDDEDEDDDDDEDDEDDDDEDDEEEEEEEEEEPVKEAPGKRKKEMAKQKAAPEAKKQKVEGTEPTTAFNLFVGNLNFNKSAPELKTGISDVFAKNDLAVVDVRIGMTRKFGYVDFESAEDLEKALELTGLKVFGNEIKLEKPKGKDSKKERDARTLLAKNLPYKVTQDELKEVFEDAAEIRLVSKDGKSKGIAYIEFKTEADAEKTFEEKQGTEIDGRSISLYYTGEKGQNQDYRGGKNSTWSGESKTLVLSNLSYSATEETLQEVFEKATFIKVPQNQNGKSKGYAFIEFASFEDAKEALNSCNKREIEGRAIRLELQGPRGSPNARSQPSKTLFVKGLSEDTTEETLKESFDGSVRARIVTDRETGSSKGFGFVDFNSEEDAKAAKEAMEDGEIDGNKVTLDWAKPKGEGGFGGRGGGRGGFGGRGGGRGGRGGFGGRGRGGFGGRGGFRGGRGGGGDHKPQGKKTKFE
3xFlag-tagged full-length hnRNPA1 (P09651, form named): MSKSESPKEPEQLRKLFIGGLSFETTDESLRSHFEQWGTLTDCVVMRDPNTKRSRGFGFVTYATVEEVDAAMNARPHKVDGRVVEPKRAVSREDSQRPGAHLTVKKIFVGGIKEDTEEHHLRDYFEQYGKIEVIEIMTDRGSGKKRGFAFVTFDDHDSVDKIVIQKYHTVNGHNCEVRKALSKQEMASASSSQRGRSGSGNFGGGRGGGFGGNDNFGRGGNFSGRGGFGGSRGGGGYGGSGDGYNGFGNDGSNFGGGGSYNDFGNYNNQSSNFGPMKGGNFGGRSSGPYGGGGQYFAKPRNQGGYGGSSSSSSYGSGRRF
UniProt Q92804: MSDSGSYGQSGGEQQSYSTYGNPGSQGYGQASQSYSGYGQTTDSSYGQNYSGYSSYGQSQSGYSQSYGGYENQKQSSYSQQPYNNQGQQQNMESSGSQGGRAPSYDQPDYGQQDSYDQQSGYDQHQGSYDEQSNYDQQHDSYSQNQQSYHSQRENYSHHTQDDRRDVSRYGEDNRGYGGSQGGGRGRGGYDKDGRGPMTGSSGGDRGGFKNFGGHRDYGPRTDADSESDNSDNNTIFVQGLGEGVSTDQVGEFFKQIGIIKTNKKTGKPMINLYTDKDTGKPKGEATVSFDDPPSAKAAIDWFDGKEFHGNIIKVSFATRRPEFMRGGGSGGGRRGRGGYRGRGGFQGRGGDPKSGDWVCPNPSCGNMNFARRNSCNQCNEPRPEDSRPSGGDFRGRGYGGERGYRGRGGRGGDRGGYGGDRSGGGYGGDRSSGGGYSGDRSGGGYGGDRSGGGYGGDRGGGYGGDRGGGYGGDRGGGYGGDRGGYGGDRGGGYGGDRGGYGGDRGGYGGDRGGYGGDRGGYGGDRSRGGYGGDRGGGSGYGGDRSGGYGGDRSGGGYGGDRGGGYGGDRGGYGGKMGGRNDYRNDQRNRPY

Key:
[1] = target: T1, FLAG-tagged RBFOX2 (UniProt O43251); experiment: co-IP; FLAG-tagged substrate and Myc-PRMT1 (WT or mutant) co-transfected in HEK293T; nuclear and cytoplasmic extracts on anti-Flag resin 2 h, Flag peptide elution, anti-MYC blot
T1 sequence: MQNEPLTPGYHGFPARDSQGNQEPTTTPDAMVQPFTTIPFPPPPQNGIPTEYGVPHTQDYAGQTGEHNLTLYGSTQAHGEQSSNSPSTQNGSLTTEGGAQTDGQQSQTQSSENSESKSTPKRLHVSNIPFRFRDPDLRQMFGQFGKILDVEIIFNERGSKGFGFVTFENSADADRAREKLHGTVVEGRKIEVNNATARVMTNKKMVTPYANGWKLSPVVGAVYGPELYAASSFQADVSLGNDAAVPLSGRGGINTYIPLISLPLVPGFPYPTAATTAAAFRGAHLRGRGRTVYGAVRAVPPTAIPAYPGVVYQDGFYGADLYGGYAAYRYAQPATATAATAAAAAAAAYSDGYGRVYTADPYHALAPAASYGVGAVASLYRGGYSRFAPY

[2] = target: T2, 3xFlag-tagged full-length GAR1 (UniProt Q9NY12); experiment: as above
T2 sequence: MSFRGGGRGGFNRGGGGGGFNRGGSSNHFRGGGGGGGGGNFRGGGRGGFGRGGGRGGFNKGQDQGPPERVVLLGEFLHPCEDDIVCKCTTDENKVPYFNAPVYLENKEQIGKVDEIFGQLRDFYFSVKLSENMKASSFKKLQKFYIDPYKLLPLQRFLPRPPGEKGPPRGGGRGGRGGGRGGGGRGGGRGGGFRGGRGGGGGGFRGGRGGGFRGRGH

[3] = target: 3xFlag-tagged full-length Nucleolin (UniProt P19338); experiment: as above
[4] = target: 3xFlag-tagged full-length hnRNPA1 (UniProt P09651); experiment: as above
[5] = target: T3, 3xFlag-tagged full-length Fibrillarin (UniProt P22087); experiment: as above
T3 sequence: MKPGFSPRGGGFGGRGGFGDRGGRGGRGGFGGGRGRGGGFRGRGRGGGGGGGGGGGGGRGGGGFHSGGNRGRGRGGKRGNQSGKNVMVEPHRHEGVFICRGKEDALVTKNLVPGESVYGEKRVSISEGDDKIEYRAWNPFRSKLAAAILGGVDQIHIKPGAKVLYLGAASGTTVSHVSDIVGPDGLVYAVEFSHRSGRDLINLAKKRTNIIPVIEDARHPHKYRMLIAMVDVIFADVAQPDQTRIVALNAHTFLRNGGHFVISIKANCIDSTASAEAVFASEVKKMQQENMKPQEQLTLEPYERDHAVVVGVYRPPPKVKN

[6] = target: 3xFlag-tagged full-length hnRNPK (UniProt P61978); experiment: as above
[7] = target: FLAG-tagged TAF15 (UniProt Q92804); experiment: as above
[8] = target: T4, fibrillarin of the PRMT1-Fibrillarin complex (SEC and cryo-EM sample) (UniProt P22087); experiment: SEC; PRMT1-substrate complex on Superose 6 Increase 10/300GL, with PRMT1 oligomers and dimers as controls; fractions on SDS-PAGE; both purified
T4 sequence: T3 sequence

[9] = target: T5, MBP-Fibrillarin-FLAG (UniProt P22087); experiment: pull-down; GST- or FLAG-tagged substrate on GST beads or anti-FLAG resin, mixed with purified PRMT; 50 mM Tris-HCl pH 8.0, 150 mM NaCl, 2 mM DTT, 10% glycerol, 0.1% NP40, 1 h at 4 C; Coomassie staining; both purified
T5 sequence: T3 sequence

[10] = target: T6, GST-GAR1 (UniProt Q9NY12); experiment: as above
T6 sequence: T2 sequence

[11] = target: GST-hnRNPK (UniProt P61978); experiment: as above

Measured: binding

MYC-PRMT1, wild type, full length (from UniProt Q99873 1-371) (enzyme)
not listed: [8] | [9] | [10] | [11]
binds: all other assays above

human PRMT1 (residues 32-371), wild type (from UniProt Q99873 32-371) (enzyme)
binds: [8] | [9] | [10] | [11]
